Results: paper PMC12221414
Results are given in words; binding and its absence hold for the method and conditions named. In cells and extracts the contact can be indirect. Some results given as binding are weak or reduced against the parent protein; the word gives no strength.

Molecular target: T1, Snapin (mouse (endogenous in HEI-OC1)) (UniProt Q9Z266)
T1 sequence: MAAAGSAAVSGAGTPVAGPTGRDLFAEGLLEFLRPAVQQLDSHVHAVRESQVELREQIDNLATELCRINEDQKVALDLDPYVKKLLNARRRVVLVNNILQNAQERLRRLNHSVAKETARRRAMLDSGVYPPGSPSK
Test: co-IP; HEI-OC1 cells (Cisd2 knockdown, as the methods say) lysed in RIPA buffer; 4 ug SNAPIN antibody 2-3 hr at 4°C, protein A/G 1 hr; washed in RIPA and PBS; Western blot with SNAPIN and CISD2 antibodies

binding: binds
B1: Cisd2 (protein, UniProt Q9CQB5 1-135)
chain: MVLDSVARIVKVQLPAYLKQLPVPDSITGFARLTVSDWLRLLPFLGVLALLGYLAVRPFFPKKKQQKDSLINLKIQKENPKVVNEINIEDLCLTKAAYCRCWRSKTFPACDGSHNKHNELTGDNVGPLILKKKEV
